The test system of data set [1] is human lower gastrointestinal organoids. The experiment in a line: Organoid morphology by immunostaining; organoids established in Matrigel, cultured without Matrigel with Lats-IN. In kind it is cell-based. The settings on record: absence of Matrigel; Lats-IN 10 μM.
Data set [2] relates to human large intestine-derived organoids. The data set can be described thus: Morphology by immunostaining of organoids established without Matrigel with Lats-IN, 18 passages. In kind it is cell-based. The settings on record: established without Matrigel with Lats-IN 10 μM, day 7.

As to `O=C(N=c1sccn1Cc1ccccc1)c1c[nH]c2ncccc12` [Lats-IN], in data set [1], the “expression of stem cell and differentiated cell markers” value was “confirmed to express not only the stem cell marker Lgr5, but also the Paneth cell marker lysozyme, the embryonic cell marker Mucin 2, and the enteroendocrine cell marker chromogranin A”. Besides, the “expression of differentiated cell markers” value in data set [2] is “confirmed to express the embryonic cell marker Mucin 2 and the enteroendocrine cell marker chromogranin A”.

These data come from patent US20250283049A1, “AGENT FOR CULTURING ORGANOID IN ABSENCE OF EXTRACELLULAR MATRIX” (KEIO UNIVERSITY, priority 2022, published 2025).
